The values that follow come from USRE47223 (Genentech, dated 2019).

No constants are given. Whether binding was seen depends on the method and setting. Some results given as binding are weak or reduced against the parent protein; the word gives no strength.

Experiment [1] has as its target T1, CA125, human TAT10772 shed antigen (human, UniProt Q8WXI7 1-14451, limits assumed).
T1 construct: domain: entire shed antigen; Bought reagent; also called CA125 polypeptide
The experiment can be described thus: phage-displayed Fab on immobilized CA125.

In experiment [2] the target is T1, CA125, human TAT10772 shed antigen. As to the kind of experiment: Biacore, soluble Fab.

B1: 11D10 HVR graft, Fab (Fab, V domains shown)
VH: EVQLVESGGGLVQPGGSLRLSCAASGFNIKDTYMHWVRQAPGKGLEWVGRVDPANGNTKYDPKFQGRFTISADTSKNTAYLQMNSLRAEDTAVYYCVRDYYGHTYGFAFWGQGTLVTVSS
VL: DIQMTQSPSSLSASVGDRVTITCTASSSVSSSYLHWYQQKPGKAPKLLIYSTSNLASGVPSRFSGSGSGTDFTLTISSLQPEDFATYYCHQYHRSPYTFGQGTKVEIKR
As for B1, the binding entry in experiment [1] and in experiment [2] was “binds” in each case.
